Experimental findings from publication PMC12260538 are described below.

Protein sequences, listed by entry. Tags and fused reporters are not part of them.
UniProt Q9Z183: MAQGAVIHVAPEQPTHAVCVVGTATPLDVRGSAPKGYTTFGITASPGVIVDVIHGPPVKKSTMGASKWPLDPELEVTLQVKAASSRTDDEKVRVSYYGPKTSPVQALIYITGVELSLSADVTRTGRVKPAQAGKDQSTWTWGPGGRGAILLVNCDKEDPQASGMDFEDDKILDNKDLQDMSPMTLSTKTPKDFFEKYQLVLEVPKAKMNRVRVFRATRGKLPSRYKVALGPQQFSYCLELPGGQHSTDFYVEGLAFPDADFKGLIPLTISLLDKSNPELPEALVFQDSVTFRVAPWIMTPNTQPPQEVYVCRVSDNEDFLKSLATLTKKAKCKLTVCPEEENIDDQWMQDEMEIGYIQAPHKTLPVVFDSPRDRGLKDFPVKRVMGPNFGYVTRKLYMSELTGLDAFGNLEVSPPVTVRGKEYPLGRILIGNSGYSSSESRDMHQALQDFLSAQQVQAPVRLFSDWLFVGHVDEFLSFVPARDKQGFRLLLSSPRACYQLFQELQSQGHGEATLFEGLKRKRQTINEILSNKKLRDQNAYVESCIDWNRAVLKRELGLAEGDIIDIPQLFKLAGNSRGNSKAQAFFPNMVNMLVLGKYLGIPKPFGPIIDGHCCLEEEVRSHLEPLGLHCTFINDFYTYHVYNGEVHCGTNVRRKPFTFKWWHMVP

No constants are given. Whether binding was seen depends on the method and setting. In cells and extracts the contact can be indirect. Some results given as binding are weak or reduced against the parent protein; the word gives no strength.

Experiment [1] concerns the target T1, gasdermin D (GSDMD) (mouse (endogenous in lung tissue)) (UniProt Q9D8T2).
T1 sequence: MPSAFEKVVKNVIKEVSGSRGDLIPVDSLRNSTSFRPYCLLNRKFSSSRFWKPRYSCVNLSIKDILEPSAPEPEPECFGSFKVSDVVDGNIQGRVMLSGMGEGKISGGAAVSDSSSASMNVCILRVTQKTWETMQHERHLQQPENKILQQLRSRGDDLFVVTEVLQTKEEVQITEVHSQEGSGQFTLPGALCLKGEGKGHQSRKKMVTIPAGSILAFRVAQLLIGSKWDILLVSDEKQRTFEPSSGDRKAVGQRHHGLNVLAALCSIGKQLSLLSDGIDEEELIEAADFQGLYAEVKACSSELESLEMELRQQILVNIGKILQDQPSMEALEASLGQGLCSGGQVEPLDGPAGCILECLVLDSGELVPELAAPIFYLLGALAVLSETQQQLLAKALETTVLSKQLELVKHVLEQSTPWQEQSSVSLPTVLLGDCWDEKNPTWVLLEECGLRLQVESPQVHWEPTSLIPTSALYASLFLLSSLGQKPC
Description: co-IP; lung tissue lysates of mice of the Control and PR8 groups; mild lysis buffer (20 mM Tris/HCl pH 7.6, 150 mM NaCl, 20 mM KCl, 1.5 mM MgCl2, 0.5% NP-40); anti-STING, anti-GSDMD or normal IgG on Protein A/G beads, overnight at 4°C; washed with TBST 0.1% Tween 20; immunoblot.

Experiment [2] addresses T2, STING (stimulator of interferon genes) (mouse (endogenous in lung tissue)) (UniProt Q3TBT3).
T2 sequence: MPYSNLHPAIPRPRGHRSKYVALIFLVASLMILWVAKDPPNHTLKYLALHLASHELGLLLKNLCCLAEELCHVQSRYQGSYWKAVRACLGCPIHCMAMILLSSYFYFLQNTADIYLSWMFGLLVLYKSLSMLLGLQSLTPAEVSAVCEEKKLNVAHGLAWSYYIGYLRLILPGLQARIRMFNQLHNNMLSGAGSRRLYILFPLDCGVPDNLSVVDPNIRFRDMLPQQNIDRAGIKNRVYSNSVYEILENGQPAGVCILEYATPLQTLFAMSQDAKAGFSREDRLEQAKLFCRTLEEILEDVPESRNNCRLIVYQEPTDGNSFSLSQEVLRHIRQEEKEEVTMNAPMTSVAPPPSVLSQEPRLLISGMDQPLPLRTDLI
Described as above.

With “PAD4 (from UniProt Q9Z183 1-666) (enzyme)”, the binding result in experiment [1] and in experiment [2] was “binds” throughout.
